Literature values as cited in patent US11542545B2, “Microfluidic measurements of the response of an organism to a drug” (priority 2014, dated 2023).

Tested on: E. coli isolates
Settings: RNA target; cited from earlier work

Structure (SMILES): O=C(O)c1cn(C2CC2)c2cc(N3CCNCC3)c(F)cc2c1=O [ciprofloxacin]
- Response to Ciprofloxacin: EcHS_A3606 feoB ferrous iron transport protein B: down-regulated
